{"source": "the supplement of paper PMC3334620", "note": "Whole data set: some 33,000 sequences, median “E-score (-0.5 to 0.5)” near -0.0059, cut for the highest 2% near 0.26. The list shows a part of the results."}
{"target": "T1, Cin5 (UniProt P40917)", "T1 sequence": "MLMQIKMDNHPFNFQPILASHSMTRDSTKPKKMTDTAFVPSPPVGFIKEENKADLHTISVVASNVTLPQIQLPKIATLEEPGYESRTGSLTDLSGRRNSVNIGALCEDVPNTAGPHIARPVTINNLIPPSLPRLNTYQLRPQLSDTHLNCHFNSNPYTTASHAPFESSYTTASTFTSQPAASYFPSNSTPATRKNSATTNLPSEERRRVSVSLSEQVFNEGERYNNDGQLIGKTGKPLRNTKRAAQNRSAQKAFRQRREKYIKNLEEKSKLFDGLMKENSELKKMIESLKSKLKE", "assay": "PBM E-score (8-mer binding enrichment) (E-score (-0.5 to 0.5)); higher = stronger / more preferred TF binding", "settings": "protein concentration: 100 nM; construct: GST-full length", "method": "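Universal 'all 10-mer' protein binding microarrays (Agilent AMADID 015681) probed with GST-tagged S. cerevisiae TFs (full-length or DBD) made by in vitro transcription/translation (PURExpress), about 100-200 nM. Bound TF was detected with fluorescent anti-GST. Each ungapped 8-mer (which stands for itself and its reverse complement) is scored by the PBM enrichment score (E-score), a modified Wilcoxon-Mann-Whitney statistic from -0.5 to +0.5, computed with the Universal PBM Analysis Suite. Scale: above 0.35 generally sequence-specific binding.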"}
{"sequence": "TCATGGGA", "PBM E-score": -0.00205}
{"sequence": "AGTGAGAC", "PBM E-score": -0.118}
{"sequence": "ACTTACCT", "PBM E-score": -0.0896}
{"sequence": "CGCCAATA", "PBM E-score": 0.121}
{"sequence": "CGACGGCG", "PBM E-score": -0.146}
{"sequence": "AATGCCTA", "PBM E-score": 0.0217}
{"sequence": "AAAAAGTC", "PBM E-score": 0.0168}
{"sequence": "AACGACAT", "PBM E-score": 0.192}
{"sequence": "CAACGAGC", "PBM E-score": -0.134}
{"sequence": "AATCGTGC", "PBM E-score": 0.176}
{"sequence": "GTCCAAAA", "PBM E-score": 0.0885}
{"sequence": "AAGGCTGC", "PBM E-score": -0.15}
{"sequence": "CTTTCAGA", "PBM E-score": 0.00683}
{"sequence": "TGCAGACA", "PBM E-score": 0.0564}
{"sequence": "TGAATCCA", "PBM E-score": 0.0884}
{"sequence": "CTGAACCA", "PBM E-score": -0.119}
{"sequence": "GACCATGA", "PBM E-score": 0.00385}
{"sequence": "ACCAGACA", "PBM E-score": -0.178}
{"sequence": "CTAGTCGA", "PBM E-score": -0.0538}
{"sequence": "GAGCATGA", "PBM E-score": 0.0489}
{"sequence": "GAAGTATA", "PBM E-score": 0.235}
{"sequence": "CCTGCACC", "PBM E-score": -0.279}
{"sequence": "CACGGTAC", "PBM E-score": -0.332}
{"sequence": "CATTATCC", "PBM E-score": 0.276}
{"sequence": "AAAGATGG", "PBM E-score": 0.0217}
{"sequence": "GCGTTCTA", "PBM E-score": -0.00959}
{"sequence": "ATCGTTTC", "PBM E-score": -0.0521}
{"sequence": "GCAAAGCC", "PBM E-score": -0.236}
{"sequence": "AAAACTAG", "PBM E-score": -0.0595}
{"sequence": "CCAGAACA", "PBM E-score": 0.0798}
{"sequence": "CGGGCGTA", "PBM E-score": -0.132}
{"sequence": "CGGTCTAA", "PBM E-score": -0.191}
{"sequence": "TCTTGACA", "PBM E-score": 0.0823}
{"sequence": "ACTAAGTG", "PBM E-score": 0.016}
{"sequence": "GAGGAGCA", "PBM E-score": -0.209}
{"sequence": "GTTCTGAA", "PBM E-score": 0.019}
{"sequence": "CGGAGCGC", "PBM E-score": -0.205}
{"sequence": "TAGGCTCA", "PBM E-score": -0.219}
{"sequence": "CAGCACCA", "PBM E-score": -0.119}
{"sequence": "GGTCCGGA", "PBM E-score": 0.0234}
{"sequence": "CGATGTTC", "PBM E-score": -0.0506}
{"sequence": "TAATAATA", "PBM E-score": 0.274}
{"sequence": "CTATACAA", "PBM E-score": 0.00862}
{"sequence": "GCGGCGCA", "PBM E-score": -0.141}
{"sequence": "ATTGGTGC", "PBM E-score": 0.134}
{"sequence": "GAACAAGA", "PBM E-score": 0.212}
{"sequence": "CACAACTG", "PBM E-score": -0.188}
{"sequence": "CTTGGAAC", "PBM E-score": -0.188}
{"sequence": "GGCAGCAC", "PBM E-score": -0.202}
{"sequence": "CAGATCCG", "PBM E-score": -0.00778}
{"sequence": "AAATAGCC", "PBM E-score": 0.00796}
{"sequence": "CCCCTTCA", "PBM E-score": -0.108}
{"sequence": "ACGTTAGT", "PBM E-score": 0.13}
{"sequence": "ATCCAGAT", "PBM E-score": -0.083}
{"sequence": "TCAGCACA", "PBM E-score": 0.102}
{"sequence": "ACGGATGA", "PBM E-score": 0.141}
{"sequence": "GTTCGGAA", "PBM E-score": 0.13}
{"sequence": "GGCTAGGA", "PBM E-score": -0.212}
{"sequence": "CCGATCGG", "PBM E-score": 0.0299}
{"sequence": "AAATGCTT", "PBM E-score": 0.0557}
{"sequence": "AATCCGCC", "PBM E-score": -0.0995}
{"sequence": "CTCCATGC", "PBM E-score": -0.0943}
{"sequence": "AGGGTGTG", "PBM E-score": -0.0723}
{"sequence": "GAGTCGGC", "PBM E-score": -0.195}
{"sequence": "CGTCAGAA", "PBM E-score": -0.204}
{"sequence": "CTCTTTCA", "PBM E-score": -0.00969}
{"sequence": "ACCTTCGT", "PBM E-score": -0.0448}
{"sequence": "AGTGGCGC", "PBM E-score": 0.0474}
{"sequence": "GCGTACCA", "PBM E-score": -0.127}
{"sequence": "GGCAGACC", "PBM E-score": -0.334}
{"sequence": "ACTAGCCT", "PBM E-score": 0.0336}
{"sequence": "ACACCCCT", "PBM E-score": -0.0458}
{"sequence": "ACCAGGAA", "PBM E-score": 0.103}
{"sequence": "AACCTGGT", "PBM E-score": 0.0147}
{"sequence": "ACCAACAG", "PBM E-score": -0.0139}
{"sequence": "ACCCCGCC", "PBM E-score": 0.129}
{"sequence": "CCCGCCCA", "PBM E-score": 0.169}
{"sequence": "CAATCTGA", "PBM E-score": "2e-05"}
{"sequence": "CAGCTCAC", "PBM E-score": -0.106}
{"sequence": "CTTTGTCC", "PBM E-score": -0.112}
{"sequence": "GCCTAAGC", "PBM E-score": -0.181}
{"sequence": "ACTGGAAG", "PBM E-score": -0.0828}
{"sequence": "GAACGCCC", "PBM E-score": -0.0594}
{"sequence": "ACGAGCGC", "PBM E-score": -0.114}
{"sequence": "AATTTGGC", "PBM E-score": -0.119}
{"sequence": "ATGTGATA", "PBM E-score": 0.266}
